The supplement of paper PMC6414424
± gives the standard deviation of the averaged measurements. The list shows a part of the results.

Tested on: APPdp1-6 iPSC-derived neurons
Assay: pThr231Tau/total Tau ratio Z-score vs DMSO vehicle wells; higher = more pThr231Tau relative to total Tau
Details: 5 µM; treatment time 5 days

| Structure (SMILES) | pThr231Tau/total Tau ratio Z-score |
| --- | --- |
| CC(=O)OCC(=O)[C@@]1(O)CC[C@H]2[C@@H]3CCC4=CC(=O)C=C[C@]4(C)[C@@]3(F)[C@@H](O)C[C@@]21C [Prestw-6] | 0.0317 ± 0.74 |
| COc1cc(C(=O)N2CCOCC2)cc(OC)c1OC | 1.13 ± 0.027 |
| CC(=O)OCC(=O)[C@@]1(O)CC[C@H]2[C@@H]3CCC4=CC(=O)CC[C@]4(C)[C@H]3C(=O)C[C@@]21C [CORTISONE ACETATE    Therap cat:  Glucocorticoid] | 1.26 ± 1.3 |
| CCC(=O)O[C@H]1[C@H](O[C@@H]2[C@@H](C)[C@H](O[C@H]3C[C@@](C)(OC)[C@@H](O)[C@H](C)O3)[C@@H](C)C(=O)O[C@H](CC)[C@@](C)(O)[C@H](O)[C@@H](C)C(=O)[C@H](C)C[C@@]2(C)O)O[C@H](C)C[C@@H]1N(C)C | -1.35 ± 1.3 |
| CC(=O)Oc1cc(C(C)C)c(OCCN(C)C)cc1C [Prestw-42] | -0.469 ± 1.1 |
| O=C(O)c1cc(O)c2c(c1)[C@H]([C@H]1c3cc(C(=O)O)cc(O)c3C(=O)c3c(O[C@@H]4O[C@H](CO)[C@@H](O)[C@H](O)[C@H]4O)cccc31)c1cccc(O[C@@H]3O[C@H](CO)[C@@H](O)[C@H](O)[C@H]3O)c1C2=O | 0.24 ± 1.7 |
| CC(c1cc2ccccc2s1)N(O)C(N)=O (centres undefined) [Prestw-1365] | -0.238 ± 0.52 |
| COc1cc(C)c(/C=C/C(C)=C/C=C/C(C)=C/C(=O)O)c(C)c1C [Prestw-1165] | 0.576 ± 0.8 |
| CN(C)CCc1c[nH]c2ccc(C[C@H]3COC(=O)N3)cc12 [ZOLMITRIPTAN, antimigraine, 5HT[1B/1D] agonist] | -0.284 ± 0.57 |
| CN(C)CCC=C1c2ccccc2C=Cc2ccccc21 [Prestw-445] | -1.02 ± 0.48 |
| C[N+]1(C)CCC(=C(c2ccccc2)c2ccccc2)CC1 [Prestw-79] | 2.02 ± 3 |
| NS(=O)(=O)c1cc2c(cc1Cl)NCNS2(=O)=O [Prestw-9] | -0.536 ± 0.62 |
| Nc1ccc(C(=O)Oc2ccccc2)c(O)c1 [FENAMISAL    Therap cat: tuberculostatic] | 0.418 ± 2.2 |
| CNNCc1ccc(C(=O)NC(C)C)cc1 [Prestw-1112] | 0.225 ± 0.31 |
| O=c1[nH]c(=O)n([C@H]2C[C@H](O)[C@@H](CO)O2)cc1F [Prestw-1415] | -1.52 ± 0.94 |
| CCn1cc(C(=O)O)c(=O)c2cc(F)c(N3CCNC(C)C3)c(F)c21 (centres undefined) [Prestw-238] | -0.52 ± 1.6 |
| CS(=O)(=O)Nc1ccc([N+](=O)[O-])cc1Oc1ccccc1 [Prestw-194] | -0.362 ± 0.17 |
| COc1cc(C)nc(-n2nc(C)cc2OC)n1 [Prestw-32] | 0.241 ± 1.4 |
| CNC(=C[N+](=O)[O-])NCCSCc1csc(CN(C)C)n1 [Prestw-921] | 0.268 ± 0.74 |
| C[C@]12C=CC(=O)C=C1CC[C@@H]1[C@@H]2C(=O)C[C@@]2(C)[C@H]1CC[C@]2(O)C(=O)CO [Prestw-77] | 0.349 ± 1.1 |
| CCOC(=O)CCC(=O)O[C@H]1[C@H](O[C@@H]2[C@@H](C)[C@H](O[C@H]3C[C@@](C)(OC)[C@@H](O)[C@H](C)O3)[C@@H](C)C(=O)O[C@H](CC)[C@@](C)(O)[C@H](O)[C@@H](C)C(=O)[C@H](C)C[C@@]2(C)O)O[C@H](C)C[C@@H]1N(C)C [ERYTHROMYCIN ETHYLSUCCINATE    Therap cat:  Antibacterial] | 0.0969 ± 1.5 |
| Cc1ccc(S(=O)(=O)NCl)cc1 | -0.273 ± 0.004 |
| C[C@@H]1O[C@@H]1P(=O)(O)O [FOSPHOMYCIN, Antibiotic; interferes with cell wall synthesis] | -0.792 ± 1.8 |

Some of the entries above in another layout.
Structure (SMILES)	pThr231Tau/total Tau ratio Z-score
CC(=O)OCC(=O)[C@@]1(O)CC[C@H]2[C@@H]3CCC4=CC(=O)C=C[C@]4(C)[C@@]3(F)[C@@H](O)C[C@@]21C [Prestw-6]	0.0317 ± 0.74
COc1cc(C(=O)N2CCOCC2)cc(OC)c1OC	1.13 ± 0.027
CC(=O)OCC(=O)[C@@]1(O)CC[C@H]2[C@@H]3CCC4=CC(=O)CC[C@]4(C)[C@H]3C(=O)C[C@@]21C [CORTISONE ACETATE    Therap cat:  Glucocorticoid]	1.26 ± 1.3

Next part:

| Structure (SMILES) | pThr231Tau/total Tau ratio Z-score |
| --- | --- |
| C[C@@H]1CN(c2c(F)c(N)c3c(=O)c(C(=O)O)cn(C4CC4)c3c2F)C[C@H](C)N1 [Prestw-1343] | -1.35 ± 1.1 |
| CC[C@]12CCCN3CCc4c(n(c5ccccc45)C(=O)C1)[C@@H]32 [Prestw-607] | -1.24 ± 0.079 |
| CCn1cc(C(=O)O)c(=O)c2cc(F)c(N3CCN(C)CC3)cc21 [Prestw-1303] | -1.11 ± 0.4 |
| CC(=O)Nc1c(I)c(NC(C)=O)c(I)c(C(=O)O)c1I [DIATRIZOIC ACID, radiopaque agent] | 0.171 ± 0.9 |
| CCc1cc(C(N)=S)ccn1 [Prestw-526] | 1.48 ± 0.84 |
| Cc1ccc(C(=O)Nc2ccc(S(=O)(=O)O)c3cc(S(=O)(=O)O)cc(S(=O)(=O)O)c23)cc1NC(=O)c1cccc(NC(=O)Nc2cccc(C(=O)Nc3cc(C(=O)Nc4ccc(S(=O)(=O)O)c5cc(S(=O)(=O)O)cc(S(=O)(=O)O)c45)ccc3C)c2)c1 | 1.41 ± 0.73 |
| CC(=O)Nc1ccc(S(=O)(=O)Nc2ccc([N+](=O)[O-])cc2)cc1 [SULFANITRAN    Therap cat: antibacterial] | 0.598 ± 0.23 |
| CCC(=O)[C@@]1(C)[C@H](C)C[C@H]2[C@@H]3CCC4=CC(=O)C=C[C@]4(C)[C@H]3[C@@H](O)C[C@@]21C [Prestw-1020] | 0.0917 ± 0.53 |
| O=C(N/N=C/c1ccc([N+](=O)[O-])o1)c1ccc(O)cc1 [Prestw-555] | -4.01 ± 1.4 |
| CN1CCN(C(c2ccccc2)c2ccc(Cl)cc2)CC1 (centres undefined) [Prestw-706] | 0.652 ± 1.4 |
| NC(=O)c1ncn([C@@H]2O[C@H](CO)[C@@H](O)[C@H]2O)c1O | 1.33 ± 3.2 |
| O=C1C=CC(=O)c2c1ccc1c2ccc2ccccc21 [Prestw-615] | -1.64 ± 0.52 |
| CC(C)(O/N=C(\C(=O)N[C@@H]1C(=O)N2C(C(=O)[O-])=C(C[n+]3ccccc3)CS[C@H]12)c1csc(N)n1)C(=O)O [Prestw-489] | -0.569 ± 1.2 |
| Cc1ccc(/C(=C\CN2CCCC2)c2ccccn2)cc1 [Prestw-262] | -0.329 ± 0.71 |
| Cc1c(Cl)cccc1Nc1ncccc1C(=O)O [Prestw-1104] | 0.304 ± 1.4 |
| C[C@H]1[C@H](NC(=O)/C(=N\OC(C)(C)C(=O)O)c2csc(N)n2)C(=O)N1S(=O)(=O)O [Prestw-185] | -0.205 ± 1.9 |
| C[C@H]1[C@H](NC(=O)/C(=N\OC(C)(C)C(=O)O)c2csc(N)n2)C(=O)N1S(=O)(=O)O [AZTREONAM, antibacterial] | 0.344 ± 1.4 |
| COc1cc(CNC(=O)CCCC/C=C\C(C)C)ccc1O | 1.24 ± 0.81 |
| CCc1c2c(nc3ccc(OC(=O)N4CCC(N5CCCCC5)CC4)cc13)-c1cc3c(c(=O)n1C2)COC(=O)[C@]3(O)CC [Prestw-1494] | -0.69 ± 0.41 |
| CN1CCC(=C2c3ccccc3C=Cc3ccccc32)CC1 [Prestw-103] | -0.498 ± 2 |
| N=C(N)NC(=N)NCCc1ccccc1 [Prestw-179] | -0.566 ± 0.75 |
| CC(C)(C)NC[C@@H](O)COc1cccc2c1CCCC2=O [Prestw-857] | 0.663 ± 0.46 |
| CO[C@H]1/C=C/O[C@@]2(C)Oc3c(C)c(O)c4c(O)c(c(/C=N/N5CCN(C6CCCC6)CC5)c(O)c4c3C2=O)NC(=O)/C(C)=C\C=C\[C@H](C)[C@H](O)[C@@H](C)[C@@H](O)[C@@H](C)[C@H](OC(C)=O)[C@@H]1C [Prestw-1157] | -1.17 ± 0.2 |

| Structure (SMILES) | pThr231Tau/total Tau ratio Z-score |
| --- | --- |
| CC(C)(CO)[C@@H](O)C(=O)NCCC(=O)NCCSSCCNC(=O)CCNC(=O)[C@H](O)C(C)(C)CO | 1.69 ± 1.8 |
| CN(C)[C@@H]1C(=O)C(C(=O)NCNCCCC[C@H](N)C(=O)O)=C(O)[C@@]2(O)C(=O)C3=C(O)c4c(O)cccc4[C@@](C)(O)[C@H]3C[C@@H]12 [Prestw-1000] | 0.765 ± 1.4 |
| CN1CCN(CC/C=C2/c3ccccc3Sc3ccc(S(=O)(=O)N(C)C)cc32)CC1 [THIOTHIXENE    Therap cat:  Antipsychotic] | 0.701 ± 2.4 |
| C=C1CC[C@H](O)C/C1=C/C=C1\CCC[C@]2(C)[C@@H]([C@H](C)CCCC(C)C)CC[C@@H]12 | 0.984 ± 1.6 |
| NNCCc1ccccc1 [Prestw-170] | -0.145 ± 1.9 |
| CCCc1cc(C(N)=S)ccn1 [Prestw-1321] | -0.00624 ± 1 |
| CC(=O)S[C@@H]1CC2=CC(=O)CC[C@]2(C)[C@H]2CC[C@@]3(C)[C@@H](CC[C@@]34CCC(=O)O4)[C@H]12 [Prestw-128] | 0.517 ± 1.1 |
| CC(Cc1cccc(C(F)(F)F)c1)NCCOC(=O)c1ccccc1 (centres undefined) [Prestw-367] | 0.00761 ± 0.1 |
| C=CC(N)CCC(=O)O (centres undefined) [Prestw-501] | 0.696 ± 1.4 |
| CCCCCCCCCCCCCCCC(=O)OC/C=C(C)/C=C/C=C(C)/C=C/C1=C(C)CCCC1(C)C | 0.362 ± 0.5 |
| NS(=O)(=O)c1cc(C2(O)NC(=O)c3ccccc32)ccc1Cl (centres undefined) [Prestw-351] | 0.0927 ± 0.45 |
| CCN[C@H]1CN(CCCOC)S(=O)(=O)c2sc(S(N)(=O)=O)cc21 [Prestw-365] | 0.334 ± 0.18 |
| CC(=O)OCC(=O)[C@@]1(O)CC[C@H]2[C@@H]3CCC4=CC(=O)CC[C@]4(C)[C@H]3[C@@H](O)C[C@@]21C [Prestw-1486] | 0.695 ± 0.35 |
| Cc1ncc(C[n+]2csc(CCO)c2C)c(N)n1 [THIAMINE, vitamin B1, enzyme cofactor] | 0.255 ± 0.76 |
| Cc1ncc(C[n+]2csc(CCO)c2C)c(N)n1 [Prestw-631] | -0.0806 ± 1.3 |
| CC(C)c1c(C(=O)Nc2ccccc2)c(-c2ccccc2)c(-c2ccc(F)cc2)n1CC[C@@H](O)C[C@@H](O)CC(=O)O [ATORVASTATIN    Therap cat: antilipidemic] | -2.3 ± 1.1 |
| CC(C)c1c(C(=O)Nc2ccccc2)c(-c2ccccc2)c(-c2ccc(F)cc2)n1CC[C@@H](O)C[C@@H](O)CC(=O)O [Prestw-1232] | -3.78 ± 0.49 |
| CCCCN(CCCC)CCCOC(=O)c1ccc(N)cc1 [Prestw-831] | 1.04 ± 0.32 |
| COC(=O)Nc1nc2cc(C(=O)c3cccs3)ccc2[nH]1 [Prestw-100] | -3.95 ± 0.3 |
| Cc1ccc(C(=O)c2ccc(CC(=O)O)n2C)cc1 [Prestw-856] | -0.311 ± 0.97 |
| CC[N+](C)(CC)CCOC(=O)C1c2ccccc2Oc2ccccc21 [Prestw-1066] | -0.531 ± 1.3 |
| FC(F)(F)C(Cl)Br (centres undefined) [HALOTHANE, anesthetic] | 0.294 ± 1.4 |
| O=C(O)CN1C(=O)c2cccc3cccc(c23)C1=O [ALRESTATIN    Therap cat: aldose reductase inhibitor] | 2.64 ± 0.95 |
